Test results: US20230242658A1
No constants are given. Whether binding was seen depends on the method and setting. Binding can be weak; no strength is given.

Target: histidine-labeled cynomolgus monkey 4-1BB protein (cynomolgus monkey)
Assay: BLI Octet RED96

binding: binds
B1: PR001838 (antibody, human IgG1, V domains shown)
VH: EVQLLESGGGLVQPGGSLRLSCAASGFTFSNYAMSWFRQPPETGLKWVSSIDGSGGDTYYADSVKGRFTISRDNSKNTLYLQMNSLRAEDTAVYYCAKEGSHGTDDSHYDVDVWGQGTTVTVSS
